Out of some 52,000 sequences screened, about 210 (0.4%) were called active.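 How the source made its calls: active means gene whose silencing raises cell survival under the drug, median off-target-corrected z-score across its silencing RNAs 2 or more; inactive means the rest.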 This is one part of the list.
assay: Resistance to Poly (ADP-Ribose) Polymerase inhibitor: Gene Identification via Genome-wide siRNA Screen; settings: mouse BRCA2 R2336H ES cells, olaparib, CellTiter-Glo viability; active compounds read high
Source text: The role of Poly (ADP-Ribose) Polymerase (PARP) proteins in DNA repair has been elegantly utilized for the synthetic lethality-based treatment of BRCA-deficient tumors by PARP inhibitors. PARP inhibitors are now being used for treatment of BRCA-deficient breast and ovarian cancers. […] While several mechanisms of drug resistance have been identified, majority of these tumors develop drug resistance due to unknown causes. To identified novel regulators of chemo-resistance in BRCA2-mutated cells, we performed a genome wide siRNA library screen. We have found ES cells expressing a hypomorphic allele of BRCA2 to be hypersensitive to PAPP inhibitors (such as olaparib). We used ES cells expressing a mutant allele of BRCA2 that has a single amino acid substitution at position 2336 (arginine to histidine, R2336H). The screen was conducted using an Ambion (Thermo) Silencer Mouse Genome siRNA collection. The library targets 17,575 mouse genes with 3 siRNAs per gene. TET2 (E130014J05Rik) was identified as a top candidate.
Transfections were performed in 384 well plates (Corning 3707). Plates were coated with 0.1% gelatin in H2O overnight at ambient temperature. Gelatin solution was aspirated (BioTek EL406) and siRNAs were printed using a Bravo VPrep liquid handler integrated within a BioCel automation platform (Agilent). Cell viability was measured using CellTiter Glo (Promega). For transfections, […] of serum free media containing Lipofectamine RNAiMax […] was added to wells containing siRNA (0.8pmol). Lipid and siRNA were allowed to complex for 45 min at ambient temperature before addition of 1000 cells in DMEM, 30% FBS to yield final transfection mixtures containing 20 nM siRNA in DMEM, 15% FBS. PARPi (olaparib, AZD2281) was added 48 h post-transfection (500 nM) and viability (CellTiter Glo, Promega) was assayed 72 h later on a PerkinElmer Envision 2104 Multilabel plate reader. Ambion Silencer Select Negative Control #2 was incorporated on all screening plates (16 wells) and the median negative control value on each plate was used for normalization. An siRNA targeting Trp53 was used as a positive control. This control yielded a median protective effect of ~1.9 fold versus negative control throughout the screen. The median absolute deviation (MAD) based z-score was calculated for each siRNA. Genes were then ranked by taking the median value for all siRNAs tested against a given gene. Scores were also adjusted for seed-based off-target effects to help deprioritize likely false positives.

Row | Sequence | z-score
1 | GGUUGAUGCUGCUAUUGGGTT against Thap1 | inactive: -2.14
2 | GGCUAUGGAACAAAGUACUTT against Sostdc1 | inactive: -1.37
3 | GGGUUUCUUUGUGGUCUUGTT against Eif3s5 | inactive: -3.06
4 | GGCUUCAUCCACAUGCACUTT against Gja5 | inactive: -0.158
5 | CCUACUAGAAACUUCCUGATT against 1810009H17Rik | inactive: 0.524
6 | GGAAAUGUUUAUCACGGUUTT against Scube2 | inactive: -0.409
7 | GGCUGUUGAACAGGUUAUCTT against Misc12 | inactive: 0.309
8 | GGAAAUAAACCACCUCUUCTT against Olfr437 | inactive: -1.5
9 | GGGUUUGACUUUUUGAGGGTT against Fbxo30 | inactive: 0.23
10 | GGCUCUUAUUGAUAAAAGCTT against 2310057M21Rik | inactive: 1.29
11 | GGUGACUUGGAAGAGCCCATT against Il1rapl2 | inactive: 0.26
12 | GGAAGAUGAAAUCUUCAAATT against 2610022K04Rik | inactive: 1.09
13 | CCAUGGGCAUCAAACAUUCTT against BC049697 | inactive: -0.184
14 | CCUUCAUCGUACAUACCAUTT against Actn1 | inactive: 1.46
15 | GGAUACCACUUCAUCACCCTT against A230097C02 | inactive: -0.858
16 | GCUUUUCAUAUCUCUUGCATT against Olfr1385 | inactive: -0.352
17 | GGUACCAGGAUACGAAUAUTT against Pde10a | inactive: -1.27
18 | GGUGACUGAGAAAAAUGUUTT against Gfra3 | inactive: -0.0931
19 | GGGCUAUGGUUUUAUCGAATT against 2410104I19Rik | inactive: -2.42
20 | CGACGAAUGUCCUGAACAUTT against BC022145 | inactive: -1.85
21 | GCUGUUACCUUGACGAAUATT against Tsc2 | inactive: -0.021
22 | CCCACCUUACAUAUAUUGATT against Srr | inactive: -0.793

Quoted from the listing.
z-score, GCUGUUACCUUGACGAAUATT against Tsc2 is entered as inactive: -0.021
z-score, GGAAGAUGAAAUCUUCAAATT against 2610022K04Rik is entered as inactive: 1.09

Later entries.

Row | Sequence | z-score
23 | CCAGCAGCCUUCUAACUAUTT against Hnrpa2b1 | inactive: 0.399
24 | GGCCAACAAUAUAAAAGACTT against Pus3 | inactive: -0.84
25 | CCGUUAGAGCUGUUAUUUUTT against Olfr556 | inactive: 0.0968
26 | GGCAUCAACUAAACAAUCCTT against Psip1 | inactive: 1.25
27 | GGCAACGAUUGUGACUUAUTT against BC003331 | inactive: -1.5
28 | GGCAUUUGUAAUAUGGAGATT against Keo4 | inactive: 0.199
29 | GGCACACAGCCCUCAAAUUTT against Mrpl30 | inactive: -0.0287
30 | GCAUUACUGUAGGUAAGAGTT against Olfr630 | inactive: -0.617
31 | GGCUCAAGUAUCUAAUCUUTT against Tpm4 | inactive: 0.901
32 | GGAUGCAUCUUGGGUACUGTT against V1rg5 | inactive: 1.79
33 | GGAUUUGUCAAUGCAAUAATT against Olfr1012 | inactive: -0.924
34 | GGUCUUGUAUGCUAACUGGTT against D3Ertd330e | inactive: -2.53
35 | GGAGCUGAGUCCUGAUGGATT against Apod | inactive: 0.0463
36 | CCCUUCUAAAAGCUAUAAGTT against Osbpl10 | inactive: -0.412
37 | GGAGAGAAGUUUAUGAAAGTT against 9930020N01Rik | inactive: -0.653
38 | GGCAUUAUGAGCAUCUCGGTT against Tnfrsf11a | inactive: -0.308
39 | GGUCUGGGAUACUAGAGCCTT against Prap1 | inactive: 0.823
40 | CCGAACCUUCAGCUACACATT against Keap1 | inactive: -0.904
41 | CGAUUUCAUAUUAACCAGCTT against Atad1 | inactive: 1.85
42 | GGCCAAAGUCCAUUCAUUCTT against Olfr1120 | inactive: -0.107
43 | CGUAUCUGUUCAGCUGUACTT against 1810044A24Rik | inactive: -0.263
44 | GGAAAAAUGAGCAGAAACUTT against 2700097O09Rik | inactive: -2.24

Row | Sequence | z-score
45 | GGAUUAAACCUUUUAACCGTT against Emilin3 | inactive: -0.236
46 | GGCGAAAAGCCGUUCCAUUTT against E430018J23Rik | inactive: 1.46
47 | CGCUCUGCCACUUUACCUUTT against 2210010C04Rik | inactive: 0.915
48 | CGCUUCAUUGAGGAUACAGTT against Acy1 | inactive: 0.669
49 | GCUUUCAGAUGAUGACAAGTT against Cdc34 | inactive: 1.43
50 | GGAUUCCUGUACAUAUAUUTT against Ube4b | inactive: -0.982
51 | GCUCACAAACUGAUUCCUUTT against 2700081O15Rik | inactive: -0.731
52 | GGCGAUAAGACAAAAAUGATT against Myom1 | inactive: -0.577
53 | GGUUAAACCCUCUUCUCAUTT against Uhrf2 | inactive: -0.0111
54 | CCUGCUUAGGACCAUCGACTT against Lrrn2 | inactive: 1.05
55 | GGCAUACAAACACAAAAUUTT against 1810021J13Rik | inactive: 0.269
56 | GGCAGAUAGUACUAAUGAATT against Spt2 | inactive: -0.336
57 | GCUAAUGAUUUCCGCUUUGTT against AW125391 | inactive: 2.01
58 | GGAGAUAUUGUAACUCGCCTT against Pcdhgb7 | inactive: 0.486
59 | CCCAACACAAUAUUUGCCATT against Nfyc | inactive: -0.801
60 | CGAUUGUUAAAGAGAUCAUTT against Pgk2 | inactive: 0.893
61 | CCUACAGUUUAUAAGCUUCTT against Olfr877 | inactive: 0.481
62 | GCUUGGAUUGAGCUUUACATT against AL024069 | inactive: -0.799
63 | GCUUACCUCCCAACUAUCATT against Dkk3 | inactive: -0.97
64 | GGAAAGAUGAGACCACCCGTT against Stau1 | inactive: 0.2
65 | CCCUGGUGACUACGAGAAUTT against Chrna4 | inactive: 0.121
66 | GAACGCGCGAGAAAUGUGATT against 2010001J22Rik | inactive: 0.842

A section taken from the entries so far:
Row | Sequence | z-score
63 | GCUUACCUCCCAACUAUCATT against Dkk3 | inactive: -0.97
64 | GGAAAGAUGAGACCACCCGTT against Stau1 | inactive: 0.2
65 | CCCUGGUGACUACGAGAAUTT against Chrna4 | inactive: 0.121

— PubChem BioAssay AID1347423 (Functional Genomics Laboratory (NCATS/FGL), 2020)
